# Patent US7250401B2, “Therapeutic compositions” (Advanced Therapeutics and Diagnostics, LC, priority 2001, dated 2007)
# Test: Reaction with thionitrobenzoate (detection of thiol-reactive substances, loss of absorbance at 412 nm)
# Format: physicochemical
# Details: 0.01 ml of 5 mM aqueous solution, anaerobic cuvette (argon), 25° C., within 6 hours; followed up to 24 hours
# Method: A stock solution of 5-thio-2-nitrobenzoate (hereafter referred to as thionitrobenzoate) was prepared by reduction of 5,5′-dithiobis(2-nitrobenzoic acid) (hereafter referred to as DTNB, Aldrich Chemical Company). This stock solution was prepared by mixing 0.1 ml of 0.1 M DTNB dissolved in ethanol (396 mg of DTNB in 10 ml of ethanol), 0.1 ml of 1 M aqueous potassium phosphate buffer (prepared by mixing equal volumes of 1 M monobasic potassium phosphate with 1 M dibasic potassium phosphate), and 0.025 ml of 1 M sodium borohydride dissolved in 1 M NaOH on ice. After incubating this mixture for 10 minutes at ice temperature, 0.1 mL of 1 M monobasic potassium phosphate was added and the resultant solution was diluted to a final volume of 2 ml by addition of 1.675 ml of water. […]
# If 0.01 ml of the 10 mM stock of thionitrobenzoate, obtained by sodium borohydride reduction of DTNB, was diluted with 0.89 ml of water and 0.1 ml of 1 M phosphate buffer, it gave an absorbance at 412 nm of 1.36 in a 1 cm pathlength cuvette. If 0.01 ml of the 8.7 mM stock of thionitrobenzoate obtained by 2-mercaptoethanol reduction of DTNB was diluted with 0.89 ml of water and 0.1 ml of 1 M phosphate buffer, it gave an absorbance at 412 nm of 1.18 in a 1 cm pathlength cuvette. […]
row,SMILES,loss in absorbance at 412 nm
1,"CCN(CC)C(=O)OSC [DECOSMe, S-Methyl-O-(N,N-Diethylcarbamoyl)Sulfenate]",0.54
2,"CCN(CC)C(=O)[S+](C)[O-] (stereo not drawn) [DETC-MeSO, S-Methyl-N,N-Diethylthiolcarbamate Sulfoxide]",no changes in absorbance
